Measurements from the supplement of paper PMC12462457.
Counter-ions that a name gives are not always drawn. ± gives the standard deviation of the averaged measurements. This is one part of the list. Single values are uncertain here, since repeats match poorly.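 Cells were counted by imaging DAPI-stained nuclei, and cells lacking phalloidin-stained cytoplasm were excluded as dead. Each well's count was divided by the median count of the vehicle wells on the same plate, and values were averaged over two replicate plates.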

Test system: OVCAR8
Assay: cell count relative to DMSO vehicle (fold change); higher = more surviving senescent cells (less killing)
Conditions: senescence inducer: cisplatin 10 µM 48 h, then 6 d recovery (CP senescent), exposure time 24 h

SMILES | cell count (compound dose 1 µM) | cell count (compound dose 5 µM)
O=C(C=Cc1ccccc1)NC(NC(=S)Nc1ccc(Cl)cc1)C(Cl)(Cl)Cl (centres undefined) | 0.822 ± 0.077 | 0.795 ± 0.064
COc1cccc2c1C(=O)c1c(O)c3c(c(O)c1C2=O)C[C@@](O)(C(=O)CO)C[C@@H]3O[C@H]1C[C@H](N)[C@H](O)[C@H](C)O1 [Doxorubicin (hydrochloride)] | 0.848 ± 0.13 | 0.608 ± 0.11
CN(CCO)CC[C@H](CSc1ccccc1)Nc1ccc(S(=O)(=O)NC(=O)c2ccc(N3CCC([C@@H](O)c4ccccc4-c4ccc(Cl)cc4)CC3)cc2)cc1S(=O)(=O)C(F)(F)F | 0.222 ± 0.036 | 0.0835 ± 0.013
CCCCCCC[N+](CC)(CC)CCCCc1ccc(Cl)cc1 [Clofilium tosylate] | 1.03 ± 0.03 | 1.05 ± 0.09
C=C1C(=O)O[C@@H]2/C=C(\C)CC/C=C(\C)CC[C@@H]12 [Costunolide] | 0.9175 ± 0.0078 | 0.486 ± 0.024
Oc1ccc2c(c1)OCO2 [Sesamol] | 1.02 ± 0.16 | 0.699 ± 0.3
Nc1c[nH]c(=O)c2cc(-c3ccccc3)sc12 [Thienopyridone] | 0.776 ± 0.018 | 0.745 ± 0.092
COc1ccc([C@@H]2CC(=O)c3c(O)cc(O[C@@H]4O[C@H](CO[C@@H]5O[C@@H](C)[C@H](O)[C@@H](O)[C@H]5O)[C@@H](O)[C@H](O)[C@H]4O)cc3O2)cc1O [Hesperidin] | 0.937 ± 0.072 | 1.18 ± 0.05
CC(C)(C)S(=O)(=O)c1cc2c(Nc3ccc4scnc4c3)ncnc2cc1OCCO | 0.825 ± 0.21 | 0.595 ± 0.096
Cc1cc(OCCCc2c3n(c4c(-c5c(C)nn(C)c5C)c(Cl)ccc24)[C@H](C)CN(c2cn(C)c4ccc(C(=O)O)cc24)C3=O)cc(C)c1Cl | 0.807 ± 0.17 | 0.625 ± 0.23
CC(C(=O)O)c1ccc2c(c1)Cc1cccnc1O2 (centres undefined) | 1.29 ± 0.14 | 1.09 ± 0.2
Clc1ccc(NN=C(c2ccccc2)c2ccccn2)nc1 | 1.01 ± 0.24 | 0.467 ± 0.16
CN[C@H](C(=O)N[C@H](C(=O)N(C)[C@H](/C=C(\C)C(=O)O)C(C)C)C(C)(C)C)C(C)(C)c1ccccc1 [Taltobulin] | 0.756 ± 0.057 | 0.617 ± 0.065
COc1cc(O)c2c(c1)oc(=O)c1c3cc(O)c(O)cc3oc21 [Wedelolactone] | 1.19 ± 0.055 | 0.513 ± 0.069
COC(=O)C[C@H](NC(=O)[C@H](C)NC(=O)[C@@H](NC(=O)OCc1ccccc1)C(C)C)C(=O)CF | 1.02 ± 0.061 | 1.2 ± 0.11
Cc1c(C)c2c(c(C)c1O)CCC(C)(COc1ccc(CC3SC(=O)NC3=O)cc1)O2 (centres undefined) [Troglitazone] | 0.832 ± 0.11 | 0.815 ± 0.043

SMILES | cell count (compound dose 1 µM) | cell count (compound dose 5 µM)
COc1ccc(-c2cc(=O)c3c(O)cc(O)c(-c4cc(-c5cc(=O)c6c(O)cc(O)cc6o5)ccc4OC)c3o2)cc1 | 1.04 ± 0.047 | 0.917 ± 0.42
Cc1cc(-c2ncc(-c3cccnc3)cc2/C=C/c2ccccc2)cnc1-c1cccnc1 [Pyridoclax] | 0.998 ± 0.041 | 0.917 ± 0.11
COCCOc1cnc2ccn([C@H](C)c3nnc4c(F)cc(-c5cnn(C)c5)cn34)c(=O)c2c1 | 0.797 ± 0.12 | 0.913 ± 0.12
COc1ccc(-c2oc3cc(O)cc(O)c3c(=O)c2O)cc1 [Kaempferide] | 1.11 ± 0.059 | 0.86 ± 0.24
O=C1[C@H](Cc2ccc(O)cc2)N2C(=O)CCN(C(=O)NCc3ccccc3)[C@H]2CN1Cc1cccc2ccccc12 | 0.9305 ± 0.0064 | 0.861 ± 0.04
C[C@@H]1O[C@@H](O[C@H]2[C@H](O[C@H]3CC[C@]4(C)[C@H]5CC=C6[C@@H]7CC(C)(C)CC[C@]7(C(=O)O)CC[C@@]6(C)[C@]5(C)CC[C@H]4C3(C)C)OC[C@H](O[C@@H]3O[C@H](CO)[C@@H](O)[C@H](O)[C@H]3O)[C@@H]2O)[C@H](O)[C@H](O)[C@H]1O [Hederacolchiside A1] | 1.04 ± 0.23 | 0.0395 ± 0.021
COC(=O)Nc1nc2cc(C(=O)c3ccccc3)ccc2[nH]1 [Mebendazole] | 0.773 ± 0.12 | 0.639 ± 0.16
CC1C(=O)OC2C(O)C34C5CC(C(C)(C)C)C36C(OC(=O)C6O)OC4(C(=O)O5)C12O (centres undefined) [Ginkgolide B] | 1 ± 0.17 | 0.866 ± 0.15
O=c1ccc2ccc(O)cc2o1 | 0.714 ± 0.052 | 0.886 ± 0.2
C=C1C[C@@]2(O)O[C@@]3(C[C@H]2C(C)C)[C@@H](C)CC[C@@H]13 [Curcumol] | 1.07 ± 0.38 | 0.89 ± 0.052
N[C@H](Cc1c[nH]c2ccccc12)C(=O)N/N=C/c1ccc2nccnc2c1 [Rhosin (hydrochloride)] | 1.24 ± 0.11 | 1.03 ± 0.1
CC(C)c1cc(-c2n[nH]c(=O)n2-c2ccc3c(ccn3C)c2)c(O)cc1O [Ganetespib] | 0.41 ± 0.035 | 0.345 ± 0.061
NS(=O)(=O)OC[C@H]1C[C@@H](Nc2ccnc3cc(-c4cccc(SC(F)(F)F)c4)nn23)[C@H](O)[C@@H]1O | 0.0245 ± 0.018 | 0.016 ± 0.0028
N#CSc1cc(SC#N)c(N)nc1N | 1.02 ± 0.1 | 0.771 ± 0.1
O=C(/C=C/c1ccc(O)cc1)C(C(=O)/C=C/c1ccc(O)cc1)C(=O)Nc1ccccc1 | 0.718 ± 0.1 | 0.533 ± 0.24
COc1c2c(cc3c1-c1c(cc4c(c1OC)OCO4)C[C@H](C)[C@H](C)C3)OCO2 [Schisandrin C] | 0.966 ± 0.13 | 1.25 ± 0.037

Exported tab-delimited: entries from further up.
SMILES	cell count (compound dose 1 µM)	cell count (compound dose 5 µM)
COc1ccc(-c2cc(=O)c3c(O)cc(O)c(-c4cc(-c5cc(=O)c6c(O)cc(O)cc6o5)ccc4OC)c3o2)cc1	1.04 ± 0.047	0.917 ± 0.42
Cc1cc(-c2ncc(-c3cccnc3)cc2/C=C/c2ccccc2)cnc1-c1cccnc1 [Pyridoclax]	0.998 ± 0.041	0.917 ± 0.11
COCCOc1cnc2ccn([C@H](C)c3nnc4c(F)cc(-c5cnn(C)c5)cn34)c(=O)c2c1	0.797 ± 0.12	0.913 ± 0.12
COc1ccc(-c2oc3cc(O)cc(O)c3c(=O)c2O)cc1 [Kaempferide]	1.11 ± 0.059	0.86 ± 0.24
O=C1[C@H](Cc2ccc(O)cc2)N2C(=O)CCN(C(=O)NCc3ccccc3)[C@H]2CN1Cc1cccc2ccccc12	0.9305 ± 0.0064	0.861 ± 0.04
C[C@@H]1O[C@@H](O[C@H]2[C@H](O[C@H]3CC[C@]4(C)[C@H]5CC=C6[C@@H]7CC(C)(C)CC[C@]7(C(=O)O)CC[C@@]6(C)[C@]5(C)CC[C@H]4C3(C)C)OC[C@H](O[C@@H]3O[C@H](CO)[C@@H](O)[C@H](O)[C@H]3O)[C@@H]2O)[C@H](O)[C@H](O)[C@H]1O [Hederacolchiside A1]	1.04 ± 0.23	0.0395 ± 0.021
COC(=O)Nc1nc2cc(C(=O)c3ccccc3)ccc2[nH]1 [Mebendazole]	0.773 ± 0.12	0.639 ± 0.16
